Assay results published in patent US3992391A, “1,3-Disubstituted thiourea compounds and preparation thereof” (priority 1972, dated 1976).
At least one read-out could not be matched to a standard name with certainty.

Experiment: Effect on hypotonic hypoxia (survival time in nitrogen gas containing 1.5 % oxygen), life-prolonging rate (2)
Type: in vivo, male mice (dd-strain)
Settings: 100 mg/kg oral, 1 hour before 1.5 % oxygen in nitrogen; untreated group 8 minutes
Method: b. Effect on hyptonic hypoxia
To male mice (dd-strain) weighting 15 to 22 g were administered orally the present compounds in the dosage of 100 mg/kg, and after one hour, the mice were taken to a closed room, air in which was substituted with nitrogen gas containing 1.5 % oxygen by ventilating the nitrogen gas for 2 minutes. As sending a mixed gas into the room, the time for death was measured. The increase percent of survival time to the average survival time (8 minutes) of the group, to which the present compounds were not administered, is shown in Table II as life-prolonging rate (2).

Structure (SMILES)	Life-prolonging rate (2): increase percent of survival time [%]
OCCNC(=S)Nc1cccnc1 [drawing 34]	165
OCCNC(=S)Nc1cccnc1 [drawing 33]	126
